{"sequences": {"note": "By UniProt entry, the sequences of proteins in these tests, tags left out.", "UniProt P17096": "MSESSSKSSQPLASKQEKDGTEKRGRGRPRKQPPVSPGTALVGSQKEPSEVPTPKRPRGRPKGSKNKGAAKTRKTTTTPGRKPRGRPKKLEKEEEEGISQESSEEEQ", "UniProt Q93009": "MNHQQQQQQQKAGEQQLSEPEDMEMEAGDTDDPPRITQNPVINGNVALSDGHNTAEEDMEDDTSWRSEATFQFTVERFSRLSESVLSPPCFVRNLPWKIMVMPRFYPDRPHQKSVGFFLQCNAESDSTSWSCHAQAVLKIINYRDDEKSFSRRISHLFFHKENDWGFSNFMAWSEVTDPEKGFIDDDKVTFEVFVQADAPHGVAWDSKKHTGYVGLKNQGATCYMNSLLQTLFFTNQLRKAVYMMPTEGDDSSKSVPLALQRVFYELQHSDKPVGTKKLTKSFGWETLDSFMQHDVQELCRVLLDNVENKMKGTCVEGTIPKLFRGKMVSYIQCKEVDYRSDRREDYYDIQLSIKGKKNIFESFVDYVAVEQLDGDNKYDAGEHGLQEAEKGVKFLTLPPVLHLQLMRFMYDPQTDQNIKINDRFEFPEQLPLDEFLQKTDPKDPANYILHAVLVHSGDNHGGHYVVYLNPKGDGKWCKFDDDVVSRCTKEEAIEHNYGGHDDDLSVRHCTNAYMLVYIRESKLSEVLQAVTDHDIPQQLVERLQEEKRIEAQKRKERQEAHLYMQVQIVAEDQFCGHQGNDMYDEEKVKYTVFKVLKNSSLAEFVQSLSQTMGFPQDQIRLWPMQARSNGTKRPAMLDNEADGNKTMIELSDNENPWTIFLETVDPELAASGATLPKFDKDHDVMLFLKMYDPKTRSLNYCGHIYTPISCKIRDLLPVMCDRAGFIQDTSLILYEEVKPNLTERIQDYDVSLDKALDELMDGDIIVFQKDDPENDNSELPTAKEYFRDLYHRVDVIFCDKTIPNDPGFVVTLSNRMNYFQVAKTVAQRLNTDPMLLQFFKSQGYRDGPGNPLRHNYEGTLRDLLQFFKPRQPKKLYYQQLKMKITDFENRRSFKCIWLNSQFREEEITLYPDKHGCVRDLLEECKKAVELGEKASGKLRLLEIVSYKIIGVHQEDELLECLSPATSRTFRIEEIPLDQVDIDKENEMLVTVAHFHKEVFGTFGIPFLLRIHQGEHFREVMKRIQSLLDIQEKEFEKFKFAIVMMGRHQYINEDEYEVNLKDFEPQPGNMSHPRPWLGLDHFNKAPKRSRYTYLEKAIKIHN", "UniProt Q8N884": "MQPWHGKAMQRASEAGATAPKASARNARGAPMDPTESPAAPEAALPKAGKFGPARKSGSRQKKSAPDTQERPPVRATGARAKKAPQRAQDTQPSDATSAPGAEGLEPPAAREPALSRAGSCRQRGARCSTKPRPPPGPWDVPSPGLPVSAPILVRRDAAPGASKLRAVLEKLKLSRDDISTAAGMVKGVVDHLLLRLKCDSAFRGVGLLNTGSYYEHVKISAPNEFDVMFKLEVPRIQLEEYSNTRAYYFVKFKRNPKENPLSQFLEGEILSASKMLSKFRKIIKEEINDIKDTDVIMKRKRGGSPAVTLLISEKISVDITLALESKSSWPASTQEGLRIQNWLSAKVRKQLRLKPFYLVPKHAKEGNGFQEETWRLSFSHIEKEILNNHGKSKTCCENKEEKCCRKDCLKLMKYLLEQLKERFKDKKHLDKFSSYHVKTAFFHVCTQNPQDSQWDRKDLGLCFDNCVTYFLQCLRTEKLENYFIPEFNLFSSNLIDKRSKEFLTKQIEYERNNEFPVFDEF"}, "source": "paper PMC8836657", "key": {"[1]": {"target": "HMGA1 overexpression construct (co-IP with USP7) (UniProt P17096)", "assay": "co-IP; HEK-293T cells, 48 h after transient transfection of overexpression constructs; Flag or HA antibody for co-IP; Western blotting"}, "[2]": {"target": "3×Flag-USP7 (ubiquitin-specific peptidase 7) (UniProt Q93009)", "assay": "co-IP; HEK-293T cells, 48 h after transient transfection of overexpression constructs; Flag or HA antibody for co-IP; Western blotting"}}, "note": "These are yes or no findings as the source states them, for the method shown. In cells and extracts the contact can be indirect. Some entries that bind do so weakly or less than the wild type.", "data": [{"substance": "3×Flag-USP7 (ubiquitin-specific peptidase 7) (from UniProt Q93009 1-1102) (enzyme)", "values": [{"measurement": "binding", "setting": "[1]", "value": "binds"}]}, {"substance": "cyclic GMP-AMP synthase (from UniProt Q8N884 1-522) (enzyme)", "values": [{"measurement": "binding", "setting": "[2]", "value": "binds"}]}]}
